This assay addresses T1, PHLPP2 (PH-domain leucine-rich-repeat protein phosphatase 2), endogenous (human (endogenous in D54)) (UniProt Q6ZVD8).
T1 sequence: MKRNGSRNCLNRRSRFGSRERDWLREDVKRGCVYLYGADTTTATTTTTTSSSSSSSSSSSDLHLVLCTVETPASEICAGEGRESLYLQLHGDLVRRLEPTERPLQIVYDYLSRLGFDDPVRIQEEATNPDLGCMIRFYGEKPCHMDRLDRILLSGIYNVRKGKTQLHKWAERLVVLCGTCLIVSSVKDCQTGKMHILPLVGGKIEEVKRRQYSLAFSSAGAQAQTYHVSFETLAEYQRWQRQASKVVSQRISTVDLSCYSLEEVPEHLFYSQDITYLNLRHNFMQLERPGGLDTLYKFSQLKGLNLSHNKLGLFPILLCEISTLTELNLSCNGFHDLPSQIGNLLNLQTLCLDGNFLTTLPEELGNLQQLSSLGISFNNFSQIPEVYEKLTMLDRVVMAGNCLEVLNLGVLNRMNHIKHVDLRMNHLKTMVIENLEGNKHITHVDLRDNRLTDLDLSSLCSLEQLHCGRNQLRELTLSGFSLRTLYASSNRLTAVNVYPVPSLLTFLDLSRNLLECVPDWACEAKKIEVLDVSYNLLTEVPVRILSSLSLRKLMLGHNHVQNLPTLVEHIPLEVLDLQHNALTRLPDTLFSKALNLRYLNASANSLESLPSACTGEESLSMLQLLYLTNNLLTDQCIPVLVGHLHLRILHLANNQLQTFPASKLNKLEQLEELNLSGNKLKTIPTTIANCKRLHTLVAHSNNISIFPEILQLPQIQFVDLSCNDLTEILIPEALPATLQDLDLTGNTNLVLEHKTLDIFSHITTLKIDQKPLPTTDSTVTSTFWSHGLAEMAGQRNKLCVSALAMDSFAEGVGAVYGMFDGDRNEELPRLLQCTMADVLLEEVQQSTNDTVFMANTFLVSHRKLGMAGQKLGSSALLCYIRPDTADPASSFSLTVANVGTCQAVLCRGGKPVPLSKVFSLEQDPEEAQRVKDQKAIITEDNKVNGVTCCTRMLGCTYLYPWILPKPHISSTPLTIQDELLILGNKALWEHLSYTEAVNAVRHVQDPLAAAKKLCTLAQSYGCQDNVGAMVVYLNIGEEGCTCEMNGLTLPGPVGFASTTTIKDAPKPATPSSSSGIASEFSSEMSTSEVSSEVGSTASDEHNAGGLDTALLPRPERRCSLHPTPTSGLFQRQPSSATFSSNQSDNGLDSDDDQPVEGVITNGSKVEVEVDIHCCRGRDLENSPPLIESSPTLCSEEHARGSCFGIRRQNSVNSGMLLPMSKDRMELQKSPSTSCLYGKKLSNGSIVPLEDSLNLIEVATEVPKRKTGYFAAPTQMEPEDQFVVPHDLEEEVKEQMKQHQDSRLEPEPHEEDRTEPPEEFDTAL
Description: affinity purification with mass spectrometry; immunoprecipitation of endogenous PHLPP2 from D54 cells, silver stain, LC-MS/MS.

Results are given in words; binding and its absence hold for the method and conditions named. Binding seen in cells or lysates may run through a third protein. Here binding means that the protein was enriched with, or labelled near, the bait; the list need not be complete.

B1: IKKβ, endogenous (protein, UniProt O14920 1-756)
chain: MSWSPSLTTQTCGAWEMKERLGTGGFGNVIRWHNQETGEQIAIKQCRQELSPRNRERWCLEIQIMRRLTHPNVVAARDVPEGMQNLAPNDLPLLAMEYCQGGDLRKYLNQFENCCGLREGAILTLLSDIASALRYLHENRIIHRDLKPENIVLQQGEQRLIHKIIDLGYAKELDQGSLCTSFVGTLQYLAPELLEQQKYTVTVDYWSFGTLAFECITGFRPFLPNWQPVQWHSKVRQKSEVDIVVSEDLNGTVKFSSSLPYPNNLNSVLAERLEKWLQLMLMWHPRQRGTDPTYGPNGCFKALDDILNLKLVHILNMVTGTIHTYPVTEDESLQSLKARIQQDTGIPEEDQELLQEAGLALIPDKPATQCISDGKLNEGHTLDMDLVFLFDNSKITYETQISPRPQPESVSCILQEPKRNLAFFQLRKVWGQVWHSIQTLKEDCNRLQQGQRAAMMNLLRNNSCLSKMKNSMASMSQQLKAKLDFFKTSIQIDLEKYSEQTEFGITSDKLLLAWREMEQAVELCGRENEVKLLVERMMALQTDIVDLQRSPMGRKQGGTLDDLEEQARELYRRLREKPRDQRTEGDSQEMVRLLLQAIQSFEKKVRVIYTQLSKTVVCKQKALELLPKVEEVVSLMNEDEKTVVRLQEKRQKELWNLLKIACSKVRGPVSGSPDSMNASRLSQPGQLMSQPSTASNSLPEPAKKSEELVAEAHNLCTLLENAIQDTVREQDQSFTALDWSWLQTEEEEHSCLEQAS
For B1, the binding result is “binds”.
